Results reported in paper doi:10.1101/2021.05.11.443650.
No constants are given. Whether binding was seen depends on the method and setting. Binding seen in cells or lysates may run through a third protein. Some results given as binding are weak or reduced against the parent protein; the word gives no strength.

By UniProt entry, the sequences of proteins in these tests, tags left out.
UniProt Q9JHG7: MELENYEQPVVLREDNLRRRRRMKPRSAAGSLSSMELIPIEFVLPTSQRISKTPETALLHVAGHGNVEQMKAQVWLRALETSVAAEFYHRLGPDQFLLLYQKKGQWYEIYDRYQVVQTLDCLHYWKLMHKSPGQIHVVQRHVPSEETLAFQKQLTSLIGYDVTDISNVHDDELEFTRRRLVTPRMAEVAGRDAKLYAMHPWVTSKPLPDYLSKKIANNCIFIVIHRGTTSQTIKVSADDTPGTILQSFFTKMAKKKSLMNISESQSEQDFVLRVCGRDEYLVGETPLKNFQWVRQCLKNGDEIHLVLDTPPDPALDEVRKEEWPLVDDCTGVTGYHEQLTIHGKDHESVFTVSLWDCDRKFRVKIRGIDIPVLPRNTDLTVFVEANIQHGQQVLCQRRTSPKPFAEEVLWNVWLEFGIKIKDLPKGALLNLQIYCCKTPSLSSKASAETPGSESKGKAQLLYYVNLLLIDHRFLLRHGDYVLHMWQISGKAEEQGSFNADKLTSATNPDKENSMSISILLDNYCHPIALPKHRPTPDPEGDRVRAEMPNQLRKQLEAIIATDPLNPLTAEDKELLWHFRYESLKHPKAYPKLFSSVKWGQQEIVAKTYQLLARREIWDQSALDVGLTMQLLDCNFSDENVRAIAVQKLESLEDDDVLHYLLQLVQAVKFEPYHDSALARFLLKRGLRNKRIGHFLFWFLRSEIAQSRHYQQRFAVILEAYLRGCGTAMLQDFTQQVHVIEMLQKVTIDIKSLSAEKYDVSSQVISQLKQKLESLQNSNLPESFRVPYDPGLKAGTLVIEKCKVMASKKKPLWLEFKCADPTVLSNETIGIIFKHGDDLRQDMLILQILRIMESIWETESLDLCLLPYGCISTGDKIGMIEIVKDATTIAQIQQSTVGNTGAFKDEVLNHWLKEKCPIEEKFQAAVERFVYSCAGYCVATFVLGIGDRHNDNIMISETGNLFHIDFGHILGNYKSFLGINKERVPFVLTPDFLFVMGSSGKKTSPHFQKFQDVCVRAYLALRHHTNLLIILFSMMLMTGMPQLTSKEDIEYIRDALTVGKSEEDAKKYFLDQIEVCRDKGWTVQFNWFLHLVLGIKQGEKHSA

Target: T1, phospholamban (mouse (endogenous in mouse heart)) (UniProt P61014)
T1 sequence: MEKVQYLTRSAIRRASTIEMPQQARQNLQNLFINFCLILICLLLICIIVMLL
Assay: co-IP

Phosphoinositide 3-kinase (PI3Kγ) (from UniProt Q9JHG7 1-1102) (enzyme)
binding: binds
